The list shows a part of the results. Shown are side measurements of this screen, not its main read-out; they come without a call. Most of these compounds were active or inconclusive in the main read-out, so they are no random draw. The note in brackets gives the kind of curve behind each potency; many fits are weak.
Test: qHTS Assay for Lipid Storage Modulators in Drosophila S3 Cells;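 on cell number change: cells counted by Cell Tracker Red CMTPX staining in the red channel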
Conditions: BODIPY lipid droplet fluorescence, 18-24 h; for cell number change: measured here: cell count max response, cells fed with added oleic acid
Summary of the method: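 Laser-scanning cytometry quantifies lipid droplet accumulation (500–530 nm total intensity; droplet/cell object ratio) in oleic acid-fed (400 uM added) Drosophila S3 cells treated with a concentration series. 20 uM Triacsin C defined 100% inhibition.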

[1] = measured here: cell number channel AC50, cells fed with added oleic acid
[2] = measured here: lipid fluorescence (Fed channel) AC50, cells fed with added oleic acid

SMILES	cell number change [%]	AC50 [1]	AC50 [2]
CCn1c(/C=C/c2ccc([N+](=O)[O-])o2)nc2ccccc2c1=O	-31.7	2.59 µM [falling, full curve, poor fit]	1.64 µM [falling, partial curve]
COc1cc(CNC2CCCC2)cc(Cl)c1OCc1ccc(F)cc1	-22.4	–	1.84 µM [falling, partial curve]
CC(=O)c1cc(OC(=O)c2ccncc2)ccc1OC(=O)c1ccncc1	-104	29.1 µM [falling, single point]	–
CC1CC(C)CN(S(=O)(=O)c2ccc(C(=O)N3CC(C)OC(C)C3)cc2)C1 (configuration not stated)	7.92	4.11 µM [rising, partial curve]	–
O=c1c2cc(Br)cc(Br)c2oc2nc3n(c(=O)c12)CCCS3	1.07	–	–
CCOc1ccc(CNC(=O)CCS(=O)(=O)Cc2ccccc2C)cc1OC	1.08	–	0.651 µM [falling, full curve]
COc1cccc(OC)c1C(=O)OCCCOC(=O)c1c(OC)cccc1OC	11.8	–	29.1 µM [rising, single point]
Cc1ccc(NS(=O)(=O)c2c(C)ccc3nsnc23)c([N+](=O)[O-])c1	-26.1	–	–
CCOC(=O)Cc1nc(-c2ccccc2)n[nH]1	9.78	–	–
COc1ccc(/C=N/NC(=O)c2cc(C34CC5CC(CC(C5)C3)C4)[nH]n2)cc1O	-41.2	–	6.51 µM [rising, single point]
Cc1cccc(N=Nc2c(O)[nH]c3ccc(Br)cc23)c1	-1.12	–	29.1 µM [falling, single point]
CCn1c(-c2ccco2)n[nH]c1=S	1.68	0.206 µM [falling, full curve, poor fit]	1.46 µM [falling, partial curve]
NC(=S)N=Nc1c(O)n(C2OC(=O)c3ccccc32)c2ccccc12 (configuration not stated)	–	–	0.164 µM [rising, full curve, poor fit]
CCCN1C(=O)c2ccccc2NC1c1ccc(O)c(OCC)c1 (configuration not stated)	-15.3	–	29.1 µM [rising, single point]
O=C(Cc1ccc(-c2ccccc2)cc1)NC1CCCC1	29.5	–	–
O=C(Nc1cc(S(=O)(=O)N2CCOCC2)ccc1Oc1ccc(F)cc1)C1=COCCO1	31.7	23.1 µM [rising, single point]	–
COc1ccc(NC2=C(NCCO)C(=O)c3ccccc3C2=O)cc1	-76.8	23.1 µM [falling, partial curve]	16.4 µM [falling, partial curve]
O=C(CN1CCCC1)NC12CC3CC(CC(C3)C1)C2	37.6	29.1 µM [rising, single point]	6.51 µM [falling, single point]
COc1ccc2nc(-c3ccccc3)nc(C3CCCCC3)c2c1	1.85	–	6.51 µM [falling, partial curve, poor fit]
CCCCN(C)C(=O)CCCCn1c(=O)[nH]c2cc(OCC)c(OCC)cc2c1=O	-26.3	–	32.6 µM [falling, partial curve, poor fit]
Oc1ccccc1N1CCN(CC(O)COCc2ccccc2Cl)CC1 (configuration not stated)	82.6	–	0.291 µM [falling, partial curve, poor fit]

SMILES	cell number change [%]	AC50 [1]	AC50 [2]
COc1nnc(-c2ccc(C)c(S(=O)(=O)NC(C)C)c2)c2ccccc12	-32.2	–	29.1 µM [falling, single point]
CS(=O)(=O)Nc1cccc(-c2cn3c(n2)SCC3)c1	-2.09	–	29.1 µM [rising, single point]
CC(C)Cc1nc(N2CCN(C(=O)C(C)C)CC2)c(C#N)c2c1CCC2	-22.2	–	23.1 µM [falling, single point]
Cc1cccc(N2CCN(C(=O)c3cccc(N4C(=O)C5CC=CC(C)C5C4=O)c3)CC2)c1C (configuration not stated)	–	–	6.51 µM [falling, single point]
CC(=O)c1ccc(Oc2cnccn2)cc1	24.3	–	29.1 µM [rising, single point]
Cc1ccc(S(=O)(=O)N(CC(=O)N/N=C/c2ccccc2C(=O)O)c2cc(Cl)cc(Cl)c2)cc1	-25.4	–	4.11 µM [rising, partial curve]
O=Cc1c(Cl)cccc1Cl	-16.5	–	1.16 µM [rising, single point]
COc1ccc(-n2c(SCC#N)nc3ccccc3c2=O)cc1	7.29	–	0.82 µM [rising, full curve]
O=C1NCC(O)=C1C=NCCO	-54.1	1.64 µM [falling, full curve]	–
O=C(Nc1ccccc1C(=O)O)c1ccc2ccccc2n1	–	0.82 µM [falling, full curve, poor fit]	–
COc1ccc(S(=O)(=O)N(C)CC(=O)NCc2ccco2)cc1OC	14.5	–	–
c1ccc(COc2cccc(CNCc3ccccn3)c2)cc1	-15.4	0.00461 µM [falling, full curve, poor fit]	–
Cc1ccc(NC(=O)CCC(=O)NNC(=O)c2ccccc2[N+](=O)[O-])c(C)c1	-29.4	0.58 µM [falling, full curve, poor fit]	2.91 µM [falling, single point]
O=C(Nc1ccccc1)C1CC2CCC1C2 (configuration not stated)	3.03	–	2.31 µM [rising, single point]
Cc1[nH]c(C)c(S(=O)(=O)NCc2ccc(F)cc2)c1C(=O)N1CCCCC1	-17.1	–	0.58 µM [rising, single point]
O=C(O)c1cccc(NC(=O)c2ccc(N3C(=O)c4ccc(C(=O)Nc5cccc(C(=O)O)c5)cc4C3=O)cc2)c1	26.5	–	4.11 µM [falling, single point]
Cc1cccc(NCC(=O)NNC(=S)Nc2ccccc2)c1	8.66	0.326 µM [falling, single point]	–
Cc1nc(C)c(C(=O)Nc2cccc(F)c2)s1	13.5	–	–
O=C(Nc1ccc(F)cc1)C(Sc1nc2ccccc2[nH]1)c1ccccc1 (configuration not stated)	–	–	14.6 µM [rising, partial curve, poor fit]
COc1ccc(NC(=O)C#Cc2ccccc2)cc1	–	–	1.46 µM [falling, full curve]
Cc1cc(C)cc(C(=O)Nc2ccc(N3CCCC3)cc2)c1	5.65	–	0.112 µM [falling, full curve, poor fit]

Full records, quoted from the list:
Cc1ccc(NC(=O)CCC(=O)NNC(=O)c2ccccc2[N+](=O)[O-])c(C)c1 as listed: cell number change [%]: -29.4; AC50 [1]: 0.58 µM [falling, full curve, poor fit]; AC50 [2]: 2.91 µM [falling, single point]
Cc1cc(C)cc(C(=O)Nc2ccc(N3CCCC3)cc2)c1 as listed: cell number change [%]: 5.65; AC50 [2]: 0.112 µM [falling, full curve, poor fit]
O=C(Nc1ccc(F)cc1)C(Sc1nc2ccccc2[nH]1)c1ccccc1 (configuration not stated) as listed: AC50 [2]: 14.6 µM [rising, partial curve, poor fit]
Cc1nc(C)c(C(=O)Nc2cccc(F)c2)s1 as listed: cell number change [%]: 13.5

Remaining list, next part

SMILES	cell number change [%]	AC50 [1]	AC50 [2]
CCN1CCN(C(=O)C2CCCN(c3ncnc4c3nc3n4CCCCC3)C2)CC1 (configuration not stated)	42.2	29.1 µM [rising, single point]	–
CN(c1ccccc1)S(=O)(=O)c1cccc(C(=O)NC2CCCCC2)c1	-17.6	–	14.6 µM [rising, single point]
C=CCn1c(NC(=O)c2ccccc2Cl)c(C#N)c2nc3ccccc3nc21	-21	–	2.31 µM [falling, partial curve, poor fit]
CCN(CC)S(=O)(=O)c1cc(NC(=O)CSc2nc3c(cc2C#N)C(=O)CC(C)(C)C3)ccc1C	-3.75	–	–
COc1cc(/C=C\C(=O)Nc2cc(=O)n(C)c(=O)n2C)cc(OC)c1OC	-37.9	–	14.6 µM [falling, single point]
Cc1ccnc(NC(=O)COc2ccc3c(c2)CCC3)c1	-4.64	–	5.17 µM [falling, single point]
O=C(Nc1ccc2sccc2c1)c1ccc(Cl)s1	–	–	2.06 µM [falling, partial curve]
CCCCCn1nnc2c(=O)oc3ccccc3c21	-9.99	–	–
O=C(NCCc1c[nH]c2ccccc12)c1ccc2c(c1)OCO2	-25	–	–
CCN1CCN(S(=O)(=O)c2ccc(Cl)c(C(=O)Nc3ccccc3N3CCCC3)c2)CC1	22.2	–	18.4 µM [rising, single point]
O=C(C1CCCCC1)N(CCN1CCCC1)c1nc2ccccc2s1	18.5	0.651 µM [rising, full curve, poor fit]	2.31 µM [rising, full curve]
C/C(=N\NC(=O)c1ccc(NS(=O)(=O)c2cccs2)cc1)c1ccccc1	48.3	18.4 µM [rising, single point]	29.1 µM [rising, single point]
CC1(C)ON(C2CCCCC2)[C@H]2c3nc4ccccc4n3C[C@H]21	4.49	–	–
C=CCN1C(=O)CSc2ccc(C(=O)NCc3ccc(F)cc3)cc21	-46.9	29.1 µM [falling, single point]	–
CC(C)n1c(=S)[nH]c2ccccc2c1=O	-32.1	10.3 µM [falling, partial curve]	–
Cc1nnc2n1NC(c1ccc(Cl)cc1)C(C(=O)N(C)C1CCCCC1)S2 (configuration not stated)	13.5	–	6.51 µM [rising, partial curve, poor fit]
O=[N+]([O-])c1ccc(C(O)CN=Cc2ccc(O)cc2O)cc1 (configuration not stated)	-65.2	9.2 µM [falling, partial curve]	8.2 µM [falling, partial curve]
COc1cc(C(O)c2nc3ccccc3s2)cc(OC)c1OC (configuration not stated)	-51.5	16.4 µM [falling, partial curve, poor fit]	14.6 µM [falling, partial curve, poor fit]
C[C@@H](NC(=O)c1nc[nH]c1C(=O)NC1CCN(C(=O)OC(C)(C)C)CC1)c1ccccc1	-22.7	–	0.103 µM [rising, full curve, poor fit]
O=C(CSCc1ccc(Cl)cc1)N/N=C/c1c(Cl)cccc1Cl	-25.7	–	29.1 µM [falling, single point]
